Where “and” joins values, the source holds several entries; their conditions need not be identical. Equal values may be shown once. The whole screen tested about 360,000 compounds, of which about 7,500 (2.1%) were called active. Inconclusive means that the source gave no clear call. Such entries were picked first, then a sample of the others. Calls follow the shape of the dose curve; as a rule, active = well fitted inhibition curve with a large enough effect; inconclusive = small, poorly fitted or top-dose-only effect, or effect the other way; inactive = flat fitted curve, though single readings scatter. Potencies of inconclusive entries are doubtful fits and often do not repeat.
test: Nrf2 qHTS screen for inhibitors; details: A549 ARE-Fluc reporter, luciferase luminescence, 18-24 h; activity change, negative = inhibition: at 46 µM (top of the series); also: nearly all actives have a fitted effect of over 60% in size
How it was run: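 A549 ARE_Fluc cells (5000/well, 5% FBS OPTI-MEM) pre-incubated 2 h, then treated with compounds 18-24 h at 37C/5% CO2 in concentration-response. CellTiter-Fluor viability read first; BugLite luciferase luminescence after 15 min at room temperature gives Nrf2 activity.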
% is scaled to controls: 0 for no effect and ±100 for the full control effect; potency is read from the fitted curve at half-maximal effect.

Compound	Potency	activity change, negative = inhibition
CC(C)c1ccccc1OCCNC(=S)NC(=O)c1cccnc1	inconclusive: 32.6 µM [falling, partial curve, poor fit]	–
Cc1cccn2c(=O)nc(SCC(=O)N3CCC(Cc4ccccc4)CC3)nc12	inconclusive: 29.1 µM [falling, single point]	–
COc1ccc(C(=O)Nc2ccc3oc(Cc4ccc(Cl)cc4)nc3c2)cc1OC	inconclusive: 20.6 µM [falling, single point]	–
O=C(/C=C\Nc1ccccn1)c1ccccc1	inconclusive: 2.91 µM [activator, partial curve]	–
CCCCNc1c(-c2ccc(OC)c(Sc3ccc(OC)cc3)c2)nc2ccc(Cl)cn12	inconclusive: 32.6 µM [falling, single point]	–
Cc1cc(NS(=O)(=O)c2ccc(Nc3nc(-c4ccc(O)cc4)cs3)cc2)no1	–	inactive: 13.7%
CCOc1ccc(NC(=O)C(C)Sc2nc3ncccc3o2)cc1 (stereo not given)	inconclusive: 13 µM [activator, partial curve]	–
C=CCn1c(N)c(C(=O)Nc2cccc(C)c2)c2nc3ccccc3nc21	inconclusive: 18.4 µM [falling, single point]	–
O=C(CNC(=O)c1cccs1)Nc1ccncc1	inconclusive: 23.1 µM [falling, partial curve, poor fit]	–
COc1cc([N+](=O)[O-])ccc1NC(=O)Cc1ccc(C)cc1	inconclusive: 8.2 µM [falling, partial curve, poor fit]	–
CN1C(=O)C2(OCC(COc3ccc(Cl)cc3)O2)c2ccccc21 (stereo not given)	active: 18.4 µM	–
CC(=O)c1c(C)[nH]c(C(=O)NC2CCSc3ccccc32)c1C (stereo not given)	inconclusive: 5.17 µM [falling, partial curve, poor fit]	–
Cc1ccc(NC(=O)C(C)N2CCc3ccccc3C2)cc1 (stereo not given)	inconclusive: 2.59 µM [activator, full curve, poor fit]	–
COCCc1nc2ccc(C(=O)NCc3cccc(-n4cccn4)c3)cc2o1	inconclusive: 14.6 µM [falling, partial curve, poor fit]	–
COc1cc(SC)ccc1C(=O)Nc1ccc(OCC(=O)N2CCOCC2)cc1	inconclusive: 3.66 µM [activator, single point]	–
Cc1ccccc1C(=O)N1CCN(c2ccc(NC(=S)NC(=O)c3ccco3)cc2)CC1	inconclusive: 5.8 µM [falling, partial curve, poor fit]	–
O=C(CSc1nc2ccccc2[nH]1)Nc1nc(-c2ccccc2)c(-c2ccccc2)o1	–	inactive: 18.4%
Cc1ccc(NC(=O)c2cc(=O)c3ccccc3o2)cc1S(=O)(=O)N1CCCCC1	active: 16.4 µM	–
Cc1cccc(C)c1NC(=O)COC(=O)c1ccccc1Nc1ccccc1	inconclusive: 1.46 µM [falling, partial curve, poor fit]	–
Cc1cccc(NC(=O)[C@@H]2CCCN2C2=NS(=O)(=O)c3ccccc32)c1C	inconclusive: 29.1 µM [falling, single point]	–
C/C(=N/NC(=O)c1ccc(Br)o1)C(C)C	inconclusive: 6.51 µM [activator, partial curve]	–
CN(C)CCNCCCNc1c2ccccc2nc2cccc([N+](=O)[O-])c12	inconclusive: 0.259 µM [falling, full curve, poor fit]	–

4 neighbouring compounds already listed, for reference:
Compound	Potency	activity change, negative = inhibition
Cc1ccc(NC(=O)C(C)N2CCc3ccccc3C2)cc1 (stereo not given)	inconclusive: 2.59 µM [activator, full curve, poor fit]	–
COCCc1nc2ccc(C(=O)NCc3cccc(-n4cccn4)c3)cc2o1	inconclusive: 14.6 µM [falling, partial curve, poor fit]	–
COc1cc(SC)ccc1C(=O)Nc1ccc(OCC(=O)N2CCOCC2)cc1	inconclusive: 3.66 µM [activator, single point]	–
Cc1ccccc1C(=O)N1CCN(c2ccc(NC(=S)NC(=O)c3ccco3)cc2)CC1	inconclusive: 5.8 µM [falling, partial curve, poor fit]	–

(cont.)

Compound	Potency	activity change, negative = inhibition
CCCc1cc(=O)n2c([nH]c3ccccc32)c1C#N	active: 14.6 µM	–
CCC(Sc1nc(C)cc(C)n1)C(=O)NC1=NN=C(c2ccc(C)cc2)CS1 (stereo not given)	inconclusive: 18.4 µM [falling, single point]	–
CCOc1ccccc1-c1nnc2n1N=C(c1ccc(OC)cc1)CS2	inconclusive: 0.231 µM [activator, full curve, poor fit]	–
COc1ccc(Cc2nc3ccc(C(=O)N4CCN(C)C(C)C4)cc3o2)cc1OC (stereo not given)	inconclusive: 2.59 µM [falling, partial curve]	–
Cc1ncc(CN2CCCC(C(=O)Nc3ccc(-c4cccc(F)c4)cc3)C2)n1C (stereo not given)	–	inactive: 2.83%
O=C(Nc1nnc(SCc2ccc(Cl)cc2Cl)s1)C1COc2ccccc2O1 (stereo not given)	–	inactive: -3.38%
Cc1cc(C)cc(NC(=O)Cn2c(=O)n(Cc3ccc4c(c3)OCO4)c(=O)c3oc4ccccc4c32)c1	–	inactive: 8%
Cc1cc(C)cc(OCC(=O)NNC(=S)NC(=O)C2CC2)c1	inconclusive: 18.4 µM [falling, single point]	–
Cc1ccc(NC(=O)COc2ccc(Br)cc2C)cc1	inconclusive: 0.651 µM [activator, full curve]	–
NS(=O)(=O)c1ccc(NC(=S)Nc2ccn(Cc3cccc4ccccc34)n2)cc1	inconclusive: 29.1 µM [falling, single point]	–
COC(=O)CCC(=O)OC1(C)C(=O)C2=CN(CCc3c[nH]c4ccccc34)C(c3ccc(OC)cc3)=CC2=C(Br)C1=O (stereo not given)	inconclusive: 20.6 µM [activator, partial curve, poor fit]	–
Cn1c(C(=O)NCCc2ccsc2)cc2c(=O)n(C)c3ccccc3c21	inconclusive: 8.2 µM [falling, partial curve, poor fit]	–
Cc1nc(NC(=O)c2cccs2)ccc1Br	inconclusive: 1.84 µM [activator, full curve]	–
COc1ccc(-c2csc(NC3OC(=O)c4c3ccc(OC)c4OC)n2)cc1OC (stereo not given)	–	inactive: 10.9%
CCC(C)N(C)C(=O)c1cc2ccccc2c(-c2ccccc2Cl)n1 (stereo not given)	inconclusive: 32.6 µM [falling, single point]	–
Cc1cccc(C(=O)Nc2nc(-c3nnn(-c4cc(C)ccc4C)c3C)ns2)c1	active: 9.2 µM	–
O=[N+]([O-])c1ccc(NCCCN2CCOCC2)c(Cl)c1	inconclusive: 20.6 µM [activator, single point]	–
CCCSC1=C(C#N)C(c2ccc(Cl)cc2Cl)CC(=O)N1 (stereo not given)	inconclusive: 7.31 µM [falling, partial curve, poor fit]	–
Cc1cc(=O)n2nc(N3CCCC(C(=O)NCc4ccccc4Cl)C3)sc2n1 (stereo not given)	inconclusive: 14.6 µM [activator, partial curve, poor fit]	–
O=S(=O)(c1ccc2c(c1)CCC2)N1CCN(c2nc(-c3ccccc3)nc3ccccc23)CC1	inconclusive: 29.1 µM [activator, single point]	–
CC(OC(=O)c1ccccc1OCc1ccc(Cl)cc1)C(N)=O (stereo not given)	inconclusive: 16.4 µM [falling, single point]	–
Nc1nnc(CC(=O)N/N=C/c2cccc(OCCOc3ccccc3)c2)s1	inconclusive: 9.2 µM [activator, partial curve, poor fit]	–

Compound	Potency	activity change, negative = inhibition
Cn1c(N2CCOCC2)nc2c1c(=O)n(Cc1ccc(Cl)cc1)c(=O)n2C	inconclusive: 23.1 µM [falling, single point]	–
COc1cccc(C2CC(=O)Nc3c2c(=O)n(C)c2nc4ccccc4n32)c1 (stereo not given)	inconclusive: 7.31 µM [falling, partial curve]	–
Cc1cc(C)nc(NC(=O)c2ccc([N+](=O)[O-])o2)n1	–	inactive: -10.9%
N#CCSc1nc2cc(C(=O)N3CCC(C(N)=O)CC3)ccc2c2nc3ccccc3n12	inconclusive: 2.31 µM [falling, partial curve]	–
COc1ccc(CCNC(=O)CSCc2ccc([N+](=O)[O-])cc2)cc1OC	–	inactive: 2.14%
CCCCCc1c(C)nc(Nc2ccc(F)cc2)[nH]c1=O	inconclusive: 29.1 µM [falling, single point]	–
Cn1c(-c2ccc(Br)o2)nc2ccccc21	inconclusive: 11.6 µM [activator, partial curve] and inconclusive: 18.4 µM [activator, partial curve]	–
CC(=O)N1c2ccc(S(=O)(=O)NCCc3cccc(C)c3)cc2CC1C (stereo not given)	active: 13 µM	–
Cc1nc(-c2ccc(F)cc2)c(CC(=O)N2CCN(S(=O)(=O)c3cccc([N+](=O)[O-])c3)CC2)s1	–	inactive: -12.4%
Cc1ccccc1NC(=O)c1ccc2c(c1)OCCO2	inconclusive: 1.64 µM [activator, full curve]	–
COC(=O)c1ccc(NC(=O)c2cccc(N3C(=O)C4C5C=CC(C6CC56)C4C3=O)c2)cc1 (stereo not given)	active: 20.6 µM	–
C=CCSc1cc(C)nc2c(-c3ccccc3)cnn12	inconclusive: 5.17 µM [activator, full curve]	–
Cc1csc(NC(=O)c2cc(-c3ccco3)nc3ccccc23)n1	–	inactive: 10.3%
CC1=C(C(=O)OCc2ccccc2)C(c2ccc(Cl)cc2)NC(=O)N1C (stereo not given)	inconclusive: 6.51 µM [falling, partial curve, poor fit]	–
CC(=O)/C(C#N)=C1\NC(=O)C(Cc2ccc(C)c(C)c2)S1 (stereo not given)	inconclusive: 20.6 µM [activator, single point]	–
Cc1cc(C)nc(NC(=O)c2csnn2)c1	inconclusive: 18.4 µM [activator, single point]	–
Cc1cc(Nc2cccc(F)c2)nc(NCc2ccccc2)n1	inconclusive: 18.4 µM [falling, partial curve, poor fit]	–
COc1cccc(CN2c3ccccc3-c3nc(SCC(=O)Nc4cccc(C)c4)ncc3S2(=O)=O)c1	inconclusive: 18.4 µM [falling, partial curve, poor fit]	–
Cc1nc(N)sc1-c1csc(N(C)c2ccc(O)cc2)n1	inconclusive: 2.31 µM [activator, full curve, poor fit]	–
O=C(CSc1nnc(-c2ccccc2Cl)o1)N1CCCCC1	inconclusive: 10.3 µM [activator, partial curve]	–
O=C(NC(c1ccccc1)c1ccccc1)c1ccc(Br)o1	–	inactive: 21%

Source: PubChem BioAssay AID504444 (National Center for Advancing Translational Sciences (NCATS), 2011)
